Further values from the same series stand in other lists.
Test system: H. pylori 26695
Assay: In vivo inhibition of HsrA: RNA-Seq transcriptomic analysis of exposed cells
Format: cell-based, Helicobacter pylori
Protocol: Bacterial growth from three blood agar plates of H. pylori ATCC 700392 (aka 26695) incubated for 48 h at 37 °C under microaerobic conditions was aseptically resuspended in BHI + FBS and adjusted to 10^7 CFU/mL. BHI broth cultures were incubated microaerobically at 37 °C for 24 h. […] At this time, bacterial growth was stopped by adding 1.5 mL ice-cold RNA stop solution (95% absolute ethanol, 5% acid-buffered phenol) and subsequently incubated on ice. Control samples were exposed to the same amount of DMSO instead of the inhibitor. Helicobacter cells from all samples were harvested by centrifugation (4000 rpm at 4 °C for 10 min), then the pellets were quickly frozen by immersion in liquid nitrogen and stored at −80 °C.
RNA-Seq analysis was performed by GENEWIZ (Azenta Life Sciences, Leipzig, Germany). Frozen cell pellets from two biological replicates of each treatment condition were properly submitted to GENEWIZ in dry ice. RNA-Seq libraries were prepared according to standard protocols via rRNA depletion, RNA fragmentation and random priming, reverse transcription, 5’-phosphorylation and dA-tailing of cDNAs, adaptor ligation, and PCR enrichment. Once the quality of each library was confirmed, they were sequenced on an Illumina NovaSeq 6000 (Illumina, San Diego, CA, USA) with 150-bp paired-ends. Raw sequence reads were filtered to remove possible adapter sequences and nucleotides with poor quality using Trimmomatic v.0.36 [105]. The trimmed reads were subsequently mapped to the H. pylori strain 26695 reference genome NC_000915.1 available on NCBI, by using the Bowtie2 aligner v.2.2.6 [106]. Unique gene hit counts were calculated by using featureCounts from the Subread package v.1.5.2. Only unique reads that fell within the gene regions were counted. Using DESeq2 [108], a comparison of the gene expression between the control and treated groups of samples was performed. The Wald test was used to generate p-values and log2 fold changes. Genes with an adjusted p-value < 0.05 and absolute log2 fold change >1 were considered as differentially expressed genes (DEGs) for each comparison. The RNA-Seq data generated in this study have been deposited in ArrayExpress with the accession number E-MTAB-14255.

NC(=NOC(=O)Nc1ccc(Cl)cc1)c1csc([N+](=O)[O-])c1 [Ligand V, N′-{[(4-chloroanilino)carbonyl]}oxy-5-nitrothiophene-3-carboximidamide]
log2 Fold Change (gene HP1252, exposed to lethal concentrations vs control): -0.004
log2 Fold Change (gene HP1253, exposed to lethal concentrations vs control): 0.009
log2 Fold Change (gene HP1259, exposed to lethal concentrations vs control): -0.680
log2 Fold Change (gene HP1260, exposed to lethal concentrations vs control): 0.098
log2 Fold Change (gene HP1263, exposed to lethal concentrations of V vs control): 0.509
log2 Fold Change (gene HP1266, exposed to lethal concentrations vs control): -0.084
log2 Fold Change (gene HP1269, exposed to lethal concentrations vs control): -0.005
log2 Fold Change (gene HP1271, exposed to lethal concentrations vs control): -0.011
log2 Fold Change (gene HP1272, exposed to lethal concentration of V vs control): -0.954
log2 Fold Change (gene HP1273, exposed to lethal concentration of V vs control): -1.032
log2 Fold Change (gene HP1274, exposed to lethal concentration of V vs control): -1.184
log2 Fold Change (gene HP1276, exposed to lethal concentrations vs control): -0.659
log2 Fold Change (gene HP1278, exposed to lethal concentrations vs control): -0.035
log2 Fold Change (gene HP1281, exposed to lethal concentrations vs control): 0.060
log2 Fold Change (gene HP1282, exposed to lethal concentration of V vs control): -1.085
log2 Fold Change (gene HP1283, exposed to lethal concentrations vs control): -0.761
log2 Fold Change (gene HP1284, exposed to lethal concentrations vs control): 0.138
log2 Fold Change (gene HP1286, exposed to lethal concentration of V vs control): -1.941
log2 Fold Change (gene HP1288, exposed to lethal concentrations vs control): 1.125
log2 Fold Change (gene HP1289, exposed to lethal concentrations vs control): 1.217
log2 Fold Change (gene HP1290, exposed to lethal concentrations vs control): 1.199
log2 Fold Change (gene HP1291, exposed to lethal concentrations vs control): 2.138
log2 Fold Change (gene HP1295, exposed to lethal concentration of V vs control): -1.131
log2 Fold Change (gene HP1299, exposed to lethal concentration of V vs control): -1.027
log2 Fold Change (gene HP1321, exposed to lethal concentrations vs control): 1.797
log2 Fold Change (gene HP1324, exposed to lethal concentrations vs control): 1.131
log2 Fold Change (gene HP1326, exposed to lethal concentrations vs control): 1.036
log2 Fold Change (gene HP1327, exposed to lethal concentrations vs control): 1.200
log2 Fold Change (gene HP1328, exposed to lethal concentrations of V vs control): 0.773
log2 Fold Change (gene HP1329, exposed to lethal concentrations of V vs control): 0.841
log2 Fold Change (gene HP1330, exposed to lethal concentrations vs control): -0.835
log2 Fold Change (gene HP1332, exposed to lethal concentrations vs control): -0.793
log2 Fold Change (gene HP1333, exposed to lethal concentrations vs control): -0.026
log2 Fold Change (gene HP1334, exposed to lethal concentrations vs control): 1.060
log2 Fold Change (gene HP1336, exposed to lethal concentrations vs control): 0.059
log2 Fold Change (gene HP1338, exposed to lethal concentrations vs control): -0.723
log2 Fold Change (gene HP1339, exposed to lethal concentration of V vs control): -0.966
log2 Fold Change (gene HP1340, exposed to lethal concentrations vs control): -0.825
log2 Fold Change (gene HP1341, exposed to lethal concentration of V vs control): -1.103
log2 Fold Change (gene HP1342, exposed to lethal concentrations vs control): 1.657
log2 Fold Change (gene HP1344, exposed to lethal concentrations of V vs control): 0.858
log2 Fold Change (gene HP1347, exposed to lethal concentration of V vs control): -1.203
log2 Fold Change (gene HP1348, exposed to lethal concentration of V vs control): -1.162
log2 Fold Change (gene HP1349, exposed to lethal concentration of V vs control): -1.383
log2 Fold Change (gene HP1350, exposed to lethal concentrations vs control): -0.756
log2 Fold Change (gene HP1351, exposed to lethal concentrations vs control): 0.144
log2 Fold Change (gene HP1362, exposed to lethal concentrations of V vs control): 0.703
log2 Fold Change (gene HP1364, exposed to lethal concentrations vs control): -0.686
log2 Fold Change (gene HP1367, exposed to lethal concentrations of V vs control): 0.587
log2 Fold Change (gene HP1368, exposed to lethal concentrations vs control): 0.096
log2 Fold Change (gene HP1375, exposed to lethal concentrations vs control): -0.135
log2 Fold Change (gene HP1378, exposed to lethal concentration of V vs control): -0.930
log2 Fold Change (gene HP1379, exposed to lethal concentrations vs control): -0.625
log2 Fold Change (gene HP1382, exposed to lethal concentrations of V vs control): 0.908
log2 Fold Change (gene HP1383, exposed to lethal concentrations of V vs control): 0.490
log2 Fold Change (gene HP1384, exposed to lethal concentrations vs control): 0.139
log2 Fold Change (gene HP1386, exposed to lethal concentrations of V vs control): 0.843
log2 Fold Change (gene HP1387, exposed to lethal concentrations of V vs control): 0.841
log2 Fold Change (gene HP1387a, exposed to lethal concentrations vs control): -0.737
log2 Fold Change (gene HP1391, exposed to lethal concentrations vs control): 1.522
log2 Fold Change (gene HP1392, exposed to lethal concentrations vs control): -0.014
log2 Fold Change (gene HP1393, exposed to lethal concentrations of V vs control): 0.984
log2 Fold Change (gene HP1394, exposed to lethal concentrations of V vs control): 0.553
log2 Fold Change (gene HP1395, exposed to lethal concentrations vs control): 1.147
log2 Fold Change (gene HP1398, exposed to lethal concentrations vs control): 1.653
log2 Fold Change (gene HP1399, exposed to lethal concentrations vs control): 1.076
log2 Fold Change (gene HP1400, exposed to lethal concentrations vs control): 1.105
log2 Fold Change (gene HP1401, exposed to lethal concentrations vs control): 1.221
log2 Fold Change (gene HP1402, exposed to lethal concentrations vs control): 2.174
log2 Fold Change (gene HP1403, exposed to lethal concentrations vs control): 1.035
log2 Fold Change (gene HP1406, exposed to lethal concentrations vs control): -0.033
log2 Fold Change (gene HP1407, exposed to lethal concentrations vs control): -0.136
log2 Fold Change (gene HP1409, exposed to lethal concentrations vs control): 1.092
log2 Fold Change (gene HP1410, exposed to lethal concentrations of V vs control): 0.901
log2 Fold Change (gene HP1412, exposed to lethal concentrations vs control): 1.021
log2 Fold Change (gene HP1413, exposed to lethal concentrations of V vs control): 0.522
log2 Fold Change (gene HP1414, exposed to lethal concentration of V vs control): -0.929
log2 Fold Change (gene HP1416, exposed to lethal concentrations vs control): 0.014
log2 Fold Change (gene HP1421, exposed to lethal concentrations vs control): 0.042
log2 Fold Change (gene HP1423, exposed to lethal concentrations of V vs control): 0.519
log2 Fold Change (gene HP1424, exposed to lethal concentrations of V vs control): 0.901
log2 Fold Change (gene HP1428, exposed to lethal concentration of V vs control): -1.513
log2 Fold Change (gene HP1429, exposed to lethal concentration of V vs control): -0.877
log2 Fold Change (gene HP1430, exposed to lethal concentrations vs control): -0.817
log2 Fold Change (gene HP1437, exposed to lethal concentrations of V vs control): 0.812
log2 Fold Change (gene HP1440, exposed to lethal concentrations vs control): 1.446
log2 Fold Change (gene HP1441, exposed to lethal concentration of V vs control): -1.611
log2 Fold Change (gene HP1446, exposed to lethal concentrations vs control): -0.633
log2 Fold Change (gene HP1448, exposed to lethal concentration of V vs control): -1.547
log2 Fold Change (gene HP1449, exposed to lethal concentration of V vs control): -1.503
log2 Fold Change (gene HP1450, exposed to lethal concentration of V vs control): -1.895
log2 Fold Change (gene HP1451, exposed to lethal concentration of V vs control): -1.114
log2 Fold Change (gene HP1453, exposed to lethal concentrations vs control): 1.232
log2 Fold Change (gene HP1454, exposed to lethal concentrations of V vs control): 0.726
log2 Fold Change (gene HP1455, exposed to lethal concentrations of V vs control): 0.815
log2 Fold Change (gene HP1456, exposed to lethal concentrations vs control): 1.111
log2 Fold Change (gene HP1457, exposed to lethal concentrations of V vs control): 0.503
log2 Fold Change (gene HP1458, exposed to lethal concentrations of V vs control): 0.882
log2 Fold Change (gene HP1459, exposed to lethal concentrations of V vs control): 0.993
log2 Fold Change (gene HP1461, exposed to lethal concentrations vs control): 1.212
log2 Fold Change (gene HP1462, exposed to lethal concentration of V vs control): -1.027
log2 Fold Change (gene HP1463, exposed to lethal concentrations vs control): -0.722
log2 Fold Change (gene HP1465, exposed to lethal concentrations vs control): -0.043
log2 Fold Change (gene HP1468, exposed to lethal concentrations vs control): 1.467
log2 Fold Change (gene HP1471, exposed to lethal concentrations of V vs control): 0.610
log2 Fold Change (gene HP1472, exposed to lethal concentrations vs control): 0.099
log2 Fold Change (gene HP1476, exposed to lethal concentrations vs control): -0.863
log2 Fold Change (gene HP1478, exposed to lethal concentrations vs control): -0.870
log2 Fold Change (gene HP1479, exposed to lethal concentration of V vs control): -1.027
log2 Fold Change (gene HP1485, exposed to lethal concentration of V vs control): -1.732
log2 Fold Change (gene HP1486, exposed to lethal concentration of V vs control): -1.134
log2 Fold Change (gene HP1487, exposed to lethal concentrations vs control): -0.858
log2 Fold Change (gene HP1488, exposed to lethal concentration of V vs control): -1.185
log2 Fold Change (gene HP1489, exposed to lethal concentrations vs control): -0.678
log2 Fold Change (gene HP1490, exposed to lethal concentration of V vs control): -0.886
log2 Fold Change (gene HP1491, exposed to lethal concentrations of V vs control): 0.763
log2 Fold Change (gene HP1493, exposed to lethal concentrations vs control): -0.624
log2 Fold Change (gene HP1495, exposed to lethal concentrations vs control): -0.632
log2 Fold Change (gene HP1496, exposed to lethal concentration of V vs control): -1.607
log2 Fold Change (gene HP1497, exposed to lethal concentration of V vs control): -1.142
